Measured values as given in paper PMC3708822.

Target: T1, GST-SAP18 (UniProt O00422)
T1 sequence: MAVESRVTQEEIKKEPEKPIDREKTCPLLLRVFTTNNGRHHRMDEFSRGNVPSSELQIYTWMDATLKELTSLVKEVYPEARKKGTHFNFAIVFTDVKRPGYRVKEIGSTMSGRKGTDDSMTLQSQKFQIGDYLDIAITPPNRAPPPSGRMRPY
Experiment: pull-down; 5 ug GST-tagged proteins on glutathione sepharose 4B beads incubated 1 hour at 4°C with normalized clarified bacterial lysates of 6His-IN in 20 mM HEPES-KOH pH 8.0, 5 mM DTT, 0.1% IGEPAL; washes with 200 mM NaCl, 0.5% IGEPAL; Western blot, densitometry relative to WT; only the target purified

Substance | binding
His6-tagged IN S147G (HIV-1) | binds
His6-tagged IN K111E (HIV-1) | binds
His6-tagged IN D202G (HIV-1) | binds

No constants are given. Whether binding was seen depends on the method and setting. Binding seen in cells or lysates may run through a third protein. A result given as binding can be weak or reduced; the word gives no strength. Sequences can lack the tags named with a protein.
